Results on 21 compounds are retold here after the supplement of paper PMC12889115.

The test concerns Salmonella enterica serovar Typhimurium SL1344. The test is described as follows: bacterial growth OD600 after 18 h with compound and polymyxin B; higher = more bacterial growth (less inhibition). As to conditions: 50 µM, Mueller-Hinton broth.

Structures are written as SMILES. The list shows a part of the results. These are raw signals, not scaled to a control.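 Primary screen: polymyxin B was added at a level permeabilizing Salmonella outer membranes while sparing inner membranes. DMSO wells, both with and without polymyxin B, established maximum growth. Plate-to-plate variation meant each plate was ranked on its own, and the lowest-OD600 compounds were selected as hits.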

For the compound `COC(=O)CNC(=O)c1ccc(OC2CCN(S(C)(=O)=O)CC2)c(Cl)c1`, the “bacterial growth OD600” value (polymyxin B 1 µg/mL) is 1.11. `COC(=O)CCC(=O)N1CCCC(CCC(=O)Nc2ccc(F)cc2C)C1` (stereo unspecified): the “bacterial growth OD600” value (polymyxin B 1 µg/mL) worked out at 1.

Consider `COc1ccccc1-c1cn2c(C(=O)N3CCN(Cc4cccs4)CC3)csc2n1`, for which the “bacterial growth OD600” value (polymyxin B 1 µg/mL) stood at 0.897. Consider `CCOCCNC(=O)C1CCC(=O)N(CCc2ccc(OC)cc2)C1` (stereo unspecified), for which the “bacterial growth OD600” value (polymyxin B 1 µg/mL) amounted to 1.11. The same measure, in the same setting: the figure for `CN(CC1CCCN(CCc2ccccc2F)C1)C(=O)Cn1cccn1` (stereo unspecified) is 1.04.

With `CCOC(=O)CN(C)C(=O)c1cc(COc2c(F)cccc2F)on1`, the “bacterial growth OD600” value (polymyxin B 0.75 µg/mL) was 0.804.

For the compound `COCCNC(=O)c1ccc(OC2CCN(Cc3cccc(O)c3)CC2)c(Cl)c1`, the “bacterial growth OD600” value (polymyxin B 1 µg/mL) is 1.08. Same read-out and setting: the value for `Cn1cc(CN2CCC(Oc3cc(Cl)ccc3C(=O)N3CCCCC3)CC2)cn1` was 1.09; that for `CSCCNC(=O)CCc1nnc(CCc2c[nH]c3ccccc23)o1` was 0.872; that for `COc1ccc(-c2nc(CN(C)C(C)c3ccon3)c(C)o2)cc1C` (stereo unspecified) was 0.714. On to `OC(c1cccnc1)C1CCN(c2nc3nonc3nc2N2CCSCC2)CC1` (stereo unspecified), for which the “bacterial growth OD600” value (polymyxin B 0.75 µg/mL) was found to be 0.784.

As to `Cc1n[nH]c(C)c1CNC(=O)C1(N2CCCCC2)Cc2ccccc2C1`, the “bacterial growth OD600” value (polymyxin B 1 µg/mL) came out at 1.1.

For `CC(C)CCCC1CN(C(=O)C2CCN(C(=O)N(C)C)CC2)CCO1` (stereo unspecified), for the setting “polymyxin B 1 µg/mL”, the “bacterial growth OD600” value came to 0.913. With `COc1ccc(OC)c(-c2cc(Cl)c3c(c2)CC(CNC(=O)CNC(C)=O)O3)c1` (stereo unspecified), the “bacterial growth OD600” value (polymyxin B 0.75 µg/mL) turned out to be 0.813. For the compound `CN(Cc1ccncn1)C(=O)C1CCC(=O)N(CCCc2ccccc2)C1` (stereo unspecified), the “bacterial growth OD600” value (polymyxin B 1 µg/mL) came out at 1.16. With `COc1ccc(NC2CCCN(C(=O)c3ccc(-c4ccco4)cc3)C2)cc1` (stereo unspecified), for the setting “polymyxin B 1 µg/mL”, the “bacterial growth OD600” value was 0.74.

In the case of `COc1cccc(O)c1CN1CCC(C(Cc2ccccc2F)N(C)C(=O)c2cccs2)CC1` (stereo unspecified), the “bacterial growth OD600” value (polymyxin B 0.75 µg/mL) came out at 0.114. Regarding `CN(C(=O)c1cc2ccccc2oc1=O)C1CCCN(C2Cc3ccccc3C2)C1` (stereo unspecified), the “bacterial growth OD600” value (polymyxin B 1 µg/mL) is 1.02. Same read-out and setting: the value for `CC(Cn1cncn1)NC(=O)c1ccc2nc(Cc3ccccc3F)oc2c1` (stereo unspecified) was 0.912. On to `COc1ccc2c(c1)OC(C)CN(CC(=O)N1CCCN(c3nc4ccccc4o3)CC1)C2` (stereo unspecified), for which, under “polymyxin B 0.75 µg/mL”, the “bacterial growth OD600” value is 0.787. `Cc1ccc(C)c(-c2n[nH]cc2CN2CCCC(CNC(=O)c3cccs3)C2)c1` (stereo unspecified): where the note is “polymyxin B 1 µg/mL”, the “bacterial growth OD600” value was determined as 0.952.
